# Results published in publication doi:10.1101/2023.06.22.545931.
# Sequences of proteins named here, by UniProt entry; tags and fusion partners are left off.
# UniProt Q9BVL2: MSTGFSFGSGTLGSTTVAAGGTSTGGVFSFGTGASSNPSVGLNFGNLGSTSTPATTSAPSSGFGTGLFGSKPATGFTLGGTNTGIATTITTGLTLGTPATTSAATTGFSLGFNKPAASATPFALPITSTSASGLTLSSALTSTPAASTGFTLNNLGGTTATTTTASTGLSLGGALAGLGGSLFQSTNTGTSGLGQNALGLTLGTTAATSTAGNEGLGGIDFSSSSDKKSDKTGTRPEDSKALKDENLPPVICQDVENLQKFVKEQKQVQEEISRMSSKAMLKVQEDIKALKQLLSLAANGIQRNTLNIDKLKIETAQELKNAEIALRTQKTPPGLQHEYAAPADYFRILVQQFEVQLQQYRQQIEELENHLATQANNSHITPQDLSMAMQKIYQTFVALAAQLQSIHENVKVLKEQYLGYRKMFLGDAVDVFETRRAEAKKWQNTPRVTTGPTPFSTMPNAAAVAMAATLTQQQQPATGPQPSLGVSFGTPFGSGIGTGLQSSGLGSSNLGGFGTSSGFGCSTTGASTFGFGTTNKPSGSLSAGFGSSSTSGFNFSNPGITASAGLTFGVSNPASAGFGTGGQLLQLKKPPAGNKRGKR
# UniProt Q8ND56: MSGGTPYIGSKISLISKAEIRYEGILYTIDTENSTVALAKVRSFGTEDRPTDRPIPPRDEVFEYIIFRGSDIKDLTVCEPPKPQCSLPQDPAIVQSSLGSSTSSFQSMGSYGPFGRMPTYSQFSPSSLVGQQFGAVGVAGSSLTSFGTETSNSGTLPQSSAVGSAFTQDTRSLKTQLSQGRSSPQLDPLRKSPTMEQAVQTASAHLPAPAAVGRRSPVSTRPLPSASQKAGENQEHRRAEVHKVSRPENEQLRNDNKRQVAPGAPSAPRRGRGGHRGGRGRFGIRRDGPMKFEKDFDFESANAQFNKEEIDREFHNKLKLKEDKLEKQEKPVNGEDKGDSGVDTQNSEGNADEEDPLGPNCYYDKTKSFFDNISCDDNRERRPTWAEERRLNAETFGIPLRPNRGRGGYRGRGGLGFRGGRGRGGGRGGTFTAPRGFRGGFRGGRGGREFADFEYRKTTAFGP
# UniProt Q96HA1: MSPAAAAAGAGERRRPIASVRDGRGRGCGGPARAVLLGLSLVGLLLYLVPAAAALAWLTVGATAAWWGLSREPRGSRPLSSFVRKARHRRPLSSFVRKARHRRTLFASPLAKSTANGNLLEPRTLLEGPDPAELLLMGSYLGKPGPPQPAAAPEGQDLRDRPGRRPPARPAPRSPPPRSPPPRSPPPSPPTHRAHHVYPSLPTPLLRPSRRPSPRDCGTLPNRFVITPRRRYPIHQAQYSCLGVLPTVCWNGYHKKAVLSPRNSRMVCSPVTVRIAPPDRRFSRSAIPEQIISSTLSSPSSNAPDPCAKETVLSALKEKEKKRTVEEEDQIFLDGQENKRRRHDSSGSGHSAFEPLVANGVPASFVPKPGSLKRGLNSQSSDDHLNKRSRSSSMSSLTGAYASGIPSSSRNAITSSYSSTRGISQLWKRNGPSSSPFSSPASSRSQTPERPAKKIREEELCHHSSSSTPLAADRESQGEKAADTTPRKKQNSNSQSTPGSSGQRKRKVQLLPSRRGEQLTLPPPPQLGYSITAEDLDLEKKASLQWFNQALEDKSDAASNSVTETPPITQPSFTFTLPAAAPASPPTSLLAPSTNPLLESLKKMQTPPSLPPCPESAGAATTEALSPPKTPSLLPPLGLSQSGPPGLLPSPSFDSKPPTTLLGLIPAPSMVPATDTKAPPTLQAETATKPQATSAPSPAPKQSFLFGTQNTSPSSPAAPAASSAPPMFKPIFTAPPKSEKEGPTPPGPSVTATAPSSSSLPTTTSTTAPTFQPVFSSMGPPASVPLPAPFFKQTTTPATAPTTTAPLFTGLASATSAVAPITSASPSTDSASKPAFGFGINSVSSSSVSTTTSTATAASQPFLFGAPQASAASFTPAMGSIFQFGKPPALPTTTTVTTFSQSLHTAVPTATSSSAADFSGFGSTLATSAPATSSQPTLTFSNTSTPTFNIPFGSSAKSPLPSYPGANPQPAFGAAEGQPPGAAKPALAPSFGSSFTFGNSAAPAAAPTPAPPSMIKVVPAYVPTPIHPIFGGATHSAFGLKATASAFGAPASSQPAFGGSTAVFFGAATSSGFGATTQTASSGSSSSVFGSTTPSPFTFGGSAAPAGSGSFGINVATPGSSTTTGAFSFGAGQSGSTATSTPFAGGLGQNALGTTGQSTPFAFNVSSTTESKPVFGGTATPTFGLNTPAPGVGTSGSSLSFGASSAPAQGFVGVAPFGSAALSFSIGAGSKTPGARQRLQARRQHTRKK
# UniProt Q96I24: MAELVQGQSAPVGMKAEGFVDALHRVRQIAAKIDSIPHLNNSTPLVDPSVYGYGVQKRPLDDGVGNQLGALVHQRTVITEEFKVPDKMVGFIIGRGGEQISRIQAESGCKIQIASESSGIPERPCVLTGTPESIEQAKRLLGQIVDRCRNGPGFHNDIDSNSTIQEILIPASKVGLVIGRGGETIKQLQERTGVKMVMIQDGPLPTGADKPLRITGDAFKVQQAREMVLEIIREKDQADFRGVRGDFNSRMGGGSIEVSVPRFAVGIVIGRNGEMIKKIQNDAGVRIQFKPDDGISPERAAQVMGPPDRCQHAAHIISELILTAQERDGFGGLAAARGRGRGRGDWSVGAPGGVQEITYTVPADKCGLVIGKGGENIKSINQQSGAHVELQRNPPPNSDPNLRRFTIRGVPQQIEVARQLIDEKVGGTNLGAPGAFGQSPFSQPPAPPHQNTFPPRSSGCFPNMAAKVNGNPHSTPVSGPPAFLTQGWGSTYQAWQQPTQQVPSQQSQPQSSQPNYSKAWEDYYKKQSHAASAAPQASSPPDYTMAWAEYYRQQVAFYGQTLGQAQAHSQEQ
# UniProt Q92973: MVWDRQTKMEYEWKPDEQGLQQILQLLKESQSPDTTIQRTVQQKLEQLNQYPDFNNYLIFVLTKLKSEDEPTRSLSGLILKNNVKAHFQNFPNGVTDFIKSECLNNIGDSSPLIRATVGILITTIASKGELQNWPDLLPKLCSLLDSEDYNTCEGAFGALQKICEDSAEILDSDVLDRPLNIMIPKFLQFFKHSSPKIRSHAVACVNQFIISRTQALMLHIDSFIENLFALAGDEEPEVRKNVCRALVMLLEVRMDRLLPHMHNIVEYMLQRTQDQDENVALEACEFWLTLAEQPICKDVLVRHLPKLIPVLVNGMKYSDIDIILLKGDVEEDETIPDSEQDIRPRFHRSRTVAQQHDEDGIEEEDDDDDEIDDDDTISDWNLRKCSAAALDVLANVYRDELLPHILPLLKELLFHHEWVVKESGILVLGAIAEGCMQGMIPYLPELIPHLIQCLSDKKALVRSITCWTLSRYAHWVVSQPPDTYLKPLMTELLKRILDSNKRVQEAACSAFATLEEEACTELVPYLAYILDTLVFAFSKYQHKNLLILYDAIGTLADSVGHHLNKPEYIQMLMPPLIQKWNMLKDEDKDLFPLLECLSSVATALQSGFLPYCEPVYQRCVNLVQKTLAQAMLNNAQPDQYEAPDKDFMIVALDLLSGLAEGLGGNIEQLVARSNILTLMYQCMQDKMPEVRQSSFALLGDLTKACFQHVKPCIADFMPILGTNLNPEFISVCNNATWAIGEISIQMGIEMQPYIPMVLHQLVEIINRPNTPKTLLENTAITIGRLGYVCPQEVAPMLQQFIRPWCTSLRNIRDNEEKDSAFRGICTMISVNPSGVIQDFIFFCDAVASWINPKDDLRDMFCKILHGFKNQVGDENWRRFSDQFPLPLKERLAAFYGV
# These are yes or no findings as the source states them, for the method shown. Binding seen in cells or lysates may run through a third protein. Here binding means that the protein was enriched with, or labelled near, the bait; the list need not be complete.
# T1: MX2-MUTT2A-TurboID (human) (UniProt P20592)
# T1 sequence: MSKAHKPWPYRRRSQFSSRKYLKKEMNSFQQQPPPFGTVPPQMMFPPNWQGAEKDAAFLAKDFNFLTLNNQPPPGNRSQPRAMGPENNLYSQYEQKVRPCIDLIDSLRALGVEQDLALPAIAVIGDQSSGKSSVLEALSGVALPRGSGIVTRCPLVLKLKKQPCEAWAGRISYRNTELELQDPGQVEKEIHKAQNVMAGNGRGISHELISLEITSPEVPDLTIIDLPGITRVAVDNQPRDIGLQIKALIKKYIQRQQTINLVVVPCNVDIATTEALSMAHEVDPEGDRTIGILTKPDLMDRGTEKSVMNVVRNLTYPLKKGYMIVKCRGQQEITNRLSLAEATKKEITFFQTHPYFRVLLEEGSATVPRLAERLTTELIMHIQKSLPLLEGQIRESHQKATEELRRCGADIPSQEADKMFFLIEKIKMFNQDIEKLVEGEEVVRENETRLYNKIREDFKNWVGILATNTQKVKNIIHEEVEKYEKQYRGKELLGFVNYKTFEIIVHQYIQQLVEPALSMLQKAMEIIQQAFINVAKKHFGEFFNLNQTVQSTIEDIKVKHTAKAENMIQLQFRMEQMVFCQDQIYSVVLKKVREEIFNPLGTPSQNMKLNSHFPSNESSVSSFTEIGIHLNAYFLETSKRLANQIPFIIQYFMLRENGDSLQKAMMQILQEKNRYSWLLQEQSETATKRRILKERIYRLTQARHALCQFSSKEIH
# B1: NUP35 (endogenous) (protein, UniProt Q8NFH5 1-326)
# chain: MAAFAVEPQGPALGSEPMMLGSPTSPKPGVNAQFLPGFLMGDLPAPVTPQPRSISGPSVGVMEMRSPLLAGGSPPQPVVPAHKDKSGAPPVRSIYDDISSPGLGSTPLTSRRQPNISVMQSPLVGVTSTPGTGQSMFSPASIGQPRKTTLSPAQLDPFYTQGDSLTSEDHLDDSWVTVFGFPQASASYILLQFAQYGNILKHVMSNTGNWMHIRYQSKLQARKALSKDGRIFGESIMIGVKPCIDKSVMESSDRCALSSPSLAFTPPIKTLGTPTQPGSTPRISTMRPLATAYKASTSDYQVISDRQTPKKDESLVSKAMEYMFGW
# B2: FAM120C (protein, UniProt Q9NX05 1-1096)
# chain: MGVQGFQEFLEKRCPGAVVPVDLLKLARTVSRQQQQQHLHRQLPPTAALAPGAPRAARGSVPLQPPLPPAALGAYSGGAGPTRHHHPAHHFHHHGQAQPGLHPPLPPPPPPQLPGARVLVDAGSALPRLYGGYQTDWVCGGQWNAMLGYLSALCQACAYPGGDGLELVVMFPGGLGKDRLAEWGRRCQAERQTAQLIVGHVGNKGTPPPRAWFLPPACLSHCVRLALIRFRVKVFQSLEDHHLEVVAFFRENGFHGLLAHDSEYALYNIPSYYSSHALKLSWNGKNLTTNQFLMQEVAKQLGLKRMNFPIFAALLGNHILPDEDLAAFHWSLLGPEHPLASLKVRAHQLVLPPCDVVIKAVSEYVSSIKDPSNLDVVGKDVFKQSQSRTEDKIERFKKAVEYYSVTTKLSSLPVGPSFLGFRNNRLGNPPLPRNQVGTISAGKPMFSHQVPQKVKYPPPFPVGPNSSLLFSSHALGESHAFSEDPMLQNSPFANWAVSYDSSASQFPNYLPSKASPPLGPDSSHSSSSDGDEPNGASSDHITEAFHHQPEWGNPNRDRGSWAQPVDTGVSEASLGDGEPHIPSLLSMSTRNHMDITIPPLPPVAPEVLRVAEHRHRRGLMYPYIYHVLTKGEIKIPVCIEDECNMELPPAALLFRSARQYVYGVLFSLAETQRKMERLAMRRRLPVEVPSVILKEWSAYKGKSPQTPELVSALTFREWTCPNLKKLWLGKAVEDKNRRMRAFLACMKSDTPSMLNPANVPTHLLLMCCVLRYMVQWPGGRILHRHELDTFLAQAVSTQLYEPDRLQELKIEKLDARGIQLAALFMSGVDTALFANDACGQPVPWEHCCPWIYFDGKLFQSKLIKAGRERVSLVELCDGQADLATKVEKMRQSILEGVNMNHPPPSALLPSPTFVPPMVPSLYPVSLYSRAMGSMPLPPQGRSRGFAGLHPIPPQGGKLEIAGMVVGQWAGSRSSRGRGSFGMQVVSVGGPGKGHGKEQTGRGSKGHKKGNKQGSSDGVSKSLELHQGRSRSQVNGNSGALIKEEKSDHRLPAPSQCALSRDSNECNNGNRYLPMNNREKNHLQEQKLETVAQRKED
# B3: NUP54 (protein, UniProt Q7Z3B4 1-507)
# chain: MAFNFGAPSGTSGTAAATAAPAGGFGGFGTTSTTAGSAFSFSAPTNTGTTGLFGGTQNKGFGFGTGFGTTTGTSTGLGTGLGTGLGFGGFNTQQQQQTTLGGLFSQPTQAPTQSNQLINTASALSAPTLLGDERDAILAKWNQLQAFWGTGKGYFNNNIPPVEFTQENPFCRFKAVGYSCMPSNKDEDGLVVLVFNKKETEIRSQQQQLVESLHKVLGGNQTLTVNVEGTKTLPDDQTEVVIYVVERSPNGTSRRVPATTLYAHFEQANIKTQLQQLGVTLSMTRTELSPAQIKQLLQNPPAGVDPIIWEQAKVDNPDSEKLIPVPMVGFKELLRRLKVQDQMTKQHQTRLDIISEDISELQKNQTTSVAKIAQYKRKLMDLSHRTLQVLIKQEIQRKSGYAIQADEEQLRVQLDTIQGELNAPTQFKGRLNELMSQIRMQNHFGAVRSEERYYIDADLLREIKQHLKQQQEGLSHLISIIKDDLEDIKLVEHGLNETIHIRGGVFS
# B4: SAMD4A (endogenous) (protein, UniProt Q9UPU9 1-718)
# chain: MMFRDQVGVLAGWFKGWNECEQTVALLSLLKRVSQTQARFLQLCLEHSLADCAELHVLEREANSPGIINQWQQESKDKVISLLLTHLPLLKPGNLDAKVEYMKLLPKILAHSIEHNQHIEESRQLLSYALIHPATSLEDRSALAMWLNHLEDRTSTSFGGQNRGRSDSVDYGQTHYYHQRQNSDDKLNGWQNSRDSGICINASNWQDKSMGCENGHVPLYSSSSVPTTINTIGTSTSTILSGQAHHSPLKRSVSLTPPMNVPNQPLGHGWMSHEDLRARGPQCLPSDHAPLSPQSSVASSGSGGSEHLEDQTTARNTFQEEGSGMKDVPAWLKSLRLHKYAALFSQMTYEEMMALTECQLEAQNVTKGARHKIVISIQKLKERQNLLKSLERDIIEGGSLRIPLQELHQMILTPIKAYSSPSTTPEARRREPQAPRQPSLMGPESQSPDCKDGAAATGATATPSAGASGGLQPHQLSSCDGELAVAPLPEGDLPGQFTRVMGKVCTQLLVSRPDEENISSYLQLIDKCLIHEAFTETQKKRLLSWKQQVQKLFRSFPRKTLLDISGYRQQRNRGFGQSNSLPTAGSVGGGMGRRNPRQYQIPSRNVPSARLGLLGTSGFVSSNQRNTTATPTIMKQGRQNLWFANPGGSNSMPSRTHSSVQRTRSLPVHTSPQNMLMFQQPEFQLPVTEPDINNRLESLCLSMTEHALGDGVDRTSTI
# B5: SAMD4B (protein, UniProt Q5PRF9 1-694)
# chain: MMFRDQVGILAGWFKGWNECEQTVALLSLLKRVTRTQARFLQLCLEHSLADCNDIHLLESEANSAAIVSQWQQESKEKVVSLLLSHLPLLQPGNTEAKSEYMRLLQKVLAYSIESNAFIEESRQLLSYALIHPATTLEDRNALALWLSHLEERLASGFRSRPEPSYHSRQGSDEWGGPAELGPGEAGPGWQDKPPRENGHVPFHPSSSVPPAINSIGSNANTGLPCQIHPSPLKRSMSLIPTSPQVPGEWPSPEELGARAAFTTPDHAPLSPQSSVASSGSEQTEEQGSSRNTFQEDGSGMKDVPSWLKSLRLHKYAALFSQMSYEEMMTLTEQHLESQNVTKGARHKIALSIQKLRERQSVLKSLEKDVLEGGNLRNALQELQQIIITPIKAYSVLQATVAAATTTPTAKDGAPGEPPLPGAEPPLAHPGTDKGTEAKDPPAVENYPPPPAPAPTDGSEPAPAPVADGDIPSQFTRVMGKVCTQLLVSRPDEENITSYLQLIEKCLTHEAFTETQKKRLLSWKQQVLKLLRTFPRKAALEMQNYRQQKGWAFGSNSLPIAGSVGMGVARRTQRQFPMPPRALPPGRMGLLSPSGIGGVSPRHALTSPSLGGQGRQNLWFANPGGSNSMPSQSRSSVQRTHSLPVHSSPQAILMFPPDCPVPGPDLEINPTLESLCLSMTEHALGDGTDKTSTI
# B6: NUP107 (protein, UniProt P57740 1-925)
# chain: MDRSGFGEISSPVIREAEVTRTARKQSAQKRVLLQASQDENFGNTTPRNQVIPRTPSSFRQPFTPTSRSLLRQPDISCILGTGGKSPRLTQSSGFFGNLSMVTNLDDSNWAAAFSSQRSGLFTNTEPHSITEDVTISAVMLREDDPGEAASMSMFSDFLQSFLKHSSSTVFDLVEEYENICGSQVNILSKIVSRATPGLQKFSKTASMLWLLQQEMVTWRLLASLYRDRIQSALEEESVFAVTAVNASEKTVVEALFQRDSLVRQSQLVVDWLESIAKDEIGEFSDNIEFYAKSVYWENTLHTLKQRQLTSYVGSVRPLVTELDPDAPIRQKMPLDDLDREDEVRLLKYLFTLIRAGMTEEAQRLCKRCGQAWRAATLEGWKLYHDPNVNGGTELEPVEGNPYRRIWKISCWRMAEDELFNRYERAIYAALSGNLKQLLPVCDTWEDTVWAYFRVMVDSLVEQEIQTSVATLDETEELPREYLGANWTLEKVFEELQATDKKRVLEENQEHYHIVQKFLILGDIDGLMDEFSKWLSKSRNNLPGHLLRFMTHLILFFRTLGLQTKEEVSIEVLKTYIQLLIREKHTNLIAFYTCHLPQDLAVAQYALFLESVTEFEQRHHCLELAKEADLDVATITKTVVENIRKKDNGEFSHHDLAPALDTGTTEEDRLKIDVIDWLVFDPAQRAEALKQGNAIMRKFLASKKHEAAKEVFVKIPQDSIAEIYNQCEEQGMESPLPAEDDNAIREHLCIRAYLEAHETFNEWFKHMNSVPQKPALIPQPTFTEKVAHEHKEKKYEMDFGIWKGHLDALTADVKEKMYNVLLFVDGGWMVDVREDAKEDHERTHQMVLLRKLCLPMLCFLLHTILHSTGQYQECLQLADMVSSERHKLYLVFSKEELRKLLQKLRESSLMLLDQGLDPLGYEIQL
# B7: TRIM56 (protein, UniProt Q9BRZ2 1-755)
# chain: MVSHGSSPSLLEALSSDFLACKICLEQLRAPKTLPCLHTYCQDCLAQLADGGRVRCPECRETVPVPPEGVASFKTNFFVNGLLDLVKARACGDLRAGKPACALCPLVGGTSTGGPATARCLDCADDLCQACADGHRCTRQTHTHRVVDLVGYRAGWYDEEARERQAAQCPQHPGEALRFLCQPCSQLLCRECRLDPHLDHPCLPLAEAVRARRPGLEGLLAGVDNNLVELEAARRVEKEALARLREQAARVGTQVEEAAEGVLRALLAQKQEVLGQLRAHVEAAEEAARERLAELEGREQVARAAAAFARRVLSLGREAEILSLEGAIAQRLRQLQGCPWAPGPAPCLLPQLELHPGLLDKNCHLLRLSFEEQQPQKDGGKDGAGTQGGEESQSRREDEPKTERQGGVQPQAGDGAQTPKEEKAQTTREEGAQTLEEDRAQTPHEDGGPQPHRGGRPNKKKKFKGRLKSISREPSPALGPNLDGSGLLPRPIFYCSFPTRMPGDKRSPRITGLCPFGPREILVADEQNRALKRFSLNGDYKGTVPVPEGCSPCSVAALQSAVAFSASARLYLINPNGEVQWRRALSLSQASHAVAALPSGDRVAVSVAGHVEVYNMEGSLATRFIPGGKASRGLRALVFLTTSPQGHFVGSDWQQNSVVICDGLGQVVGEYKGPGLHGCQPGSVSVDKKGYIFLTLREVNKVVILDPKGSLLGDFLTAYHGLEKPRVTTMVDGRYLVVSLSNGTIHIFRVRSPDS
# Target: T1, MX2-MUTT2A-TurboID (human)
# Assay: proximity labelling
row,Molecule,binding
1,NUP358/RANBP2 (from UniProt P49792 1-3224),binds
2,NUPL1(NUP58) (from UniProt Q9BVL2 1-599),binds
3,LSM14A (from UniProt Q8ND56 1-463),binds
4,POM121 (from UniProt Q96HA1 1-1249),binds
5,FUBP3 (from UniProt Q96I24 1-572),binds
6,TNPO1 (endogenous) (from UniProt Q92973 1-898),binds
7,B1,binds
8,B2,binds
9,B3,binds
10,B4,binds
11,B5,binds
12,B6,binds
13,B7,binds
